Test results as given in patent US20170333591A9, “ABSORBENT ARTICLE COMPRISING MALODOR REDUCTION COMPOSITIONS” (The Procter & Gamble Company, priority 2014, published 2017).

Assay: Log of liquid dish neat product liquid-air partition coefficient
Type: physicochemical
Conditions: code letters K/L of the Comment Code

With `O=C(c1ccccc1)c1ccccc1` [Material 655] the “Log of liquid dish neat product liquid-air partition coefficient (Comment Code)” value was “K (Log of liquid dish neat product liquid-air partition coefficient greater than or equal to 7)”.
